Patent publication JP2005124505A
No constants are given. Whether binding was seen depends on the method and setting. Some entries that bind do so weakly or less than the wild type. One block for each binder: values may come before it.

How the values were obtained:
[1] = biological target: T1, 22-1-1抗原 (22-1-1 antigen) on SiSo cells (UniProt O00559); assay: flow cytometry on SiSo cells
T1 sequence (looked up): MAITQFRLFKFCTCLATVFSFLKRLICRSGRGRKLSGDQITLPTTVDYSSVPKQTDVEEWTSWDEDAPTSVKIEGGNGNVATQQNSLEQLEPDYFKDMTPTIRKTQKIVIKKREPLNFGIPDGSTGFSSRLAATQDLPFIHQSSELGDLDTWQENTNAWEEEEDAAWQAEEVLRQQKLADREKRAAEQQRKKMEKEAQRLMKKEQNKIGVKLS

[2] = biological target: T1, 22-1-1抗原 (22-1-1 antigen) on SiSo cells; assay: flow cytometry on SiSo cells, PE anti-human IgG (legend of Fig. 9)
[3] = biological target: T1, 22-1-1抗原 (22-1-1 antigen) on SiSo cells; assay: flow cytometry on SiSo cells, PE anti-mouse IgM (legend of Fig. 8)

binding [1]: binds
binding [2]: binds
B1: 22-1-1キメラ抗体 (chimeric 22-1-1 antibody, human IgG) (antibody, V domains shown)
VH: QVQLQQSGAELVRPGTSVKISCKASGYTFTNYWLGWVKQRPGHGLEWIGDIYPGGAYPNYNERFKGKATLTADTSSSTAYMQLSSLTSEDSAVYFCARYYDGYLGYWGQGTLVTVSA
VL: DIQMTQSPASLSASVGETVTITCRASENIYSYLAWYQQKQGESPQLLVYNAKTLAEGVPSRFSGSGSGTQFSLKINSLQPEDFGSYYCQHHYGIPWTFGGGTKLEIK

binding [3]: binds
B2: 22-1-1抗体 (22-1-1モノクローナル抗体, mouse IgM, hybridoma FERM BP-7002) (antibody, V domains shown)
VH: B1 VH
VL: B1 VL
